The supplement of paper PMC11438910
This is one part of the list. The signal is at background level for most entries.

Key:
Experiment in all cases: fluorescence intensity of antibody binding to polysaccharide-coupled beads; higher = stronger binding
[1] = target: pneumococcal polysaccharide Pn23F
[2] = target: pneumococcal polysaccharide Pn24A
[3] = target: pneumococcal polysaccharide Pn24B
[4] = target: pneumococcal polysaccharide Pn24F
[5] = target: pneumococcal polysaccharide Pn25A
[6] = target: pneumococcal polysaccharide Pn25F
[7] = target: pneumococcal polysaccharide Pn27
[8] = target: pneumococcal polysaccharide Pn28A
[9] = target: pneumococcal polysaccharide Pn28F
[10] = target: pneumococcal polysaccharide Pn29
[11] = target: pneumococcal polysaccharide Pn3
[12] = target: pneumococcal polysaccharide Pn31
[13] = antibody concentration 2.8593 ng/mL
[14] = antibody concentration 15.2894 ng/mL
[15] = antibody concentration 81.7561 ng/mL
[16] = antibody concentration 437.17 ng/mL
[17] = antibody concentration 2337.65 ng/mL
[18] = antibody concentration 12500 ng/mL
[19] = antibody concentration 0.1 ng/mL
[20] = antibody concentration 0.534724 ng/mL

B1: 3S41.3 (protein)
chain 1: EVQLVESGGGLVQPGGSLRLSCATSGFTFSNYWMYWFRQAPGKGLEWVSTISGSSSNTYYPDSVKGRFTISRDNAKNTLYLQINSLRAEDTAVYYCARRHDHSSGWAFDYWGQGVLVTVSS
chain 2: EIVMTQSPATLSLSPGERATLSCRASQSVGSNLAWYQQKPGQAPKLLIYDASSRATGIPDRFSGSGSGTDFTLTVSSLEPEDVGVYYCQQYNNWKTFGQGTKVEIK
Q: How did the fluorescence intensity [1, 13] turn out when B1 was run?
A: 17.5 MFI

Q: And the fluorescence intensity [1, 14]?
A: 17.2 MFI

Q: What about the fluorescence intensity [1, 15] of the same binder?
A: 19.5 MFI

Q: And the fluorescence intensity [1, 16]?
A: 25.8 MFI

Q: And the fluorescence intensity [1, 17]?
A: 33.2 MFI

Q: And the fluorescence intensity [1, 18]?
A: 59 MFI

Q: What about the fluorescence intensity [2, 19] of the same binder?
A: 14.5 MFI

Q: What about the fluorescence intensity [2, 20] of the same binder?
A: 15.8 MFI

Q: What about the fluorescence intensity [2, 13] of the same binder?
A: 15.5 MFI

Q: And the fluorescence intensity [2, 14]?
A: 15.8 MFI

Q: And the fluorescence intensity [2, 15]?
A: 15.5 MFI

Q: And the fluorescence intensity [2, 16]?
A: 16.8 MFI

Q: And the fluorescence intensity [2, 17]?
A: 26.5 MFI

Q: And the fluorescence intensity [2, 18]?
A: 87 MFI

Q: And the fluorescence intensity [3, 19]?
A: 18 MFI

Q: What about the fluorescence intensity [3, 20] of the same binder?
A: 16.8 MFI

Q: And the fluorescence intensity [3, 13]?
A: 17.5 MFI

Q: What about the fluorescence intensity [3, 14] of the same binder?
A: 17.5 MFI

Q: And the fluorescence intensity [3, 15]?
A: 18 MFI

Q: And the fluorescence intensity [3, 16]?
A: 24 MFI

Q: And the fluorescence intensity [3, 17]?
A: 64.5 MFI

Q: And the fluorescence intensity [3, 18]?
A: 208 MFI

Q: And the fluorescence intensity [4, 19]?
A: 16.2 MFI

Q: And the fluorescence intensity [4, 20]?
A: 16.8 MFI

Q: And the fluorescence intensity [4, 13]?
A: 16.5 MFI

Q: What about the fluorescence intensity [4, 14] of the same binder?
A: 20 MFI

Q: And the fluorescence intensity [4, 15]?
A: 20 MFI

Q: What about the fluorescence intensity [4, 16] of the same binder?
A: 28.8 MFI

Q: And the fluorescence intensity [4, 17]?
A: 41.2 MFI

Q: And the fluorescence intensity [4, 18]?
A: 119 MFI

Q: What about the fluorescence intensity [5, 19] of the same binder?
A: 21.8 MFI

Q: And the fluorescence intensity [5, 20]?
A: 23.5 MFI

Q: What about the fluorescence intensity [5, 13] of the same binder?
A: 23.5 MFI

Q: What about the fluorescence intensity [5, 14] of the same binder?
A: 24.5 MFI

Q: What about the fluorescence intensity [5, 15] of the same binder?
A: 23.2 MFI

Q: And the fluorescence intensity [5, 16]?
A: 30.8 MFI

Q: And the fluorescence intensity [5, 17]?
A: 36.8 MFI

Q: And the fluorescence intensity [5, 18]?
A: 53.8 MFI

Q: And the fluorescence intensity [6, 19]?
A: 29 MFI

Q: What about the fluorescence intensity [6, 20] of the same binder?
A: 28.5 MFI

Q: What about the fluorescence intensity [6, 13] of the same binder?
A: 28.8 MFI

Q: What about the fluorescence intensity [6, 14] of the same binder?
A: 29.5 MFI

Q: And the fluorescence intensity [6, 15]?
A: 28 MFI

Q: What about the fluorescence intensity [6, 16] of the same binder?
A: 35.8 MFI

Q: And the fluorescence intensity [6, 17]?
A: 73.2 MFI

Q: And the fluorescence intensity [6, 18]?
A: 172 MFI

Q: And the fluorescence intensity [7, 19]?
A: 15.5 MFI

Q: What about the fluorescence intensity [7, 20] of the same binder?
A: 15 MFI

Q: And the fluorescence intensity [7, 13]?
A: 17 MFI

Q: And the fluorescence intensity [7, 14]?
A: 16.5 MFI

Q: What about the fluorescence intensity [7, 15] of the same binder?
A: 20.5 MFI

Q: And the fluorescence intensity [7, 16]?
A: 76 MFI

Q: And the fluorescence intensity [7, 17]?
A: 551 MFI

Q: And the fluorescence intensity [7, 18]?
A: 1200 MFI

Q: And the fluorescence intensity [8, 19]?
A: 24 MFI

Q: What about the fluorescence intensity [8, 20] of the same binder?
A: 27 MFI

Q: And the fluorescence intensity [8, 13]?
A: 26 MFI

Q: What about the fluorescence intensity [8, 14] of the same binder?
A: 26 MFI

Q: And the fluorescence intensity [8, 15]?
A: 27 MFI

Q: What about the fluorescence intensity [8, 16] of the same binder?
A: 29 MFI

Q: What about the fluorescence intensity [8, 17] of the same binder?
A: 42.5 MFI

Q: What about the fluorescence intensity [8, 18] of the same binder?
A: 83.5 MFI

Q: What about the fluorescence intensity [9, 19] of the same binder?
A: 28 MFI

Q: What about the fluorescence intensity [9, 20] of the same binder?
A: 27.2 MFI

Q: And the fluorescence intensity [9, 13]?
A: 30.2 MFI

Q: What about the fluorescence intensity [9, 14] of the same binder?
A: 27.5 MFI

Q: And the fluorescence intensity [9, 15]?
A: 31 MFI

Q: And the fluorescence intensity [9, 16]?
A: 49.8 MFI

Q: And the fluorescence intensity [9, 17]?
A: 249 MFI

Q: What about the fluorescence intensity [9, 18] of the same binder?
A: 667 MFI

Q: What about the fluorescence intensity [10, 19] of the same binder?
A: 15 MFI

Q: And the fluorescence intensity [10, 20]?
A: 16.5 MFI

Q: And the fluorescence intensity [10, 13]?
A: 16.5 MFI

Q: And the fluorescence intensity [10, 14]?
A: 15.2 MFI

Q: What about the fluorescence intensity [10, 15] of the same binder?
A: 19 MFI

Q: What about the fluorescence intensity [10, 16] of the same binder?
A: 53.5 MFI

Q: What about the fluorescence intensity [10, 17] of the same binder?
A: 426 MFI

Q: What about the fluorescence intensity [10, 18] of the same binder?
A: 1040 MFI

Q: What about the fluorescence intensity [11, 19] of the same binder?
A: 13.5 MFI

Q: And the fluorescence intensity [11, 20]?
A: 18.2 MFI

Q: And the fluorescence intensity [11, 13]?
A: 47.5 MFI

Q: And the fluorescence intensity [11, 14]?
A: 211 MFI

Q: What about the fluorescence intensity [11, 15] of the same binder?
A: 980 MFI

Q: And the fluorescence intensity [11, 16]?
A: 4260 MFI

Q: And the fluorescence intensity [11, 17]?
A: 18200 MFI

Q: What about the fluorescence intensity [11, 18] of the same binder?
A: 19200 MFI

Q: And the fluorescence intensity [12, 19]?
A: 13.5 MFI

Q: What about the fluorescence intensity [12, 20] of the same binder?
A: 13 MFI

Q: And the fluorescence intensity [12, 13]?
A: 14 MFI

Q: What about the fluorescence intensity [12, 14] of the same binder?
A: 15 MFI
